Experimental data published in paper PMC11592504.
Results are given in words; binding and its absence hold for the method and conditions named. Binding seen in cells or lysates may run through a third protein. Some entries that bind do so weakly or less than the wild type.

Target: T1, Caveolin-1 (human (endogenous in primary human ECs)), Q03135
T1 chain: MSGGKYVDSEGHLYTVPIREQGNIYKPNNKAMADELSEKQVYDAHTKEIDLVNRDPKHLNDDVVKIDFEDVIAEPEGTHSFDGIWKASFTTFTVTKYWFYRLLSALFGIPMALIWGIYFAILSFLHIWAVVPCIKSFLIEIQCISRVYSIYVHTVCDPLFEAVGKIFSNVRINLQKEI
Assay: proximity ligation; Duolink In Situ kit on fixed, permeabilised primary human ECs transfected with empty vector or HA-ADGRL2-FLAG and treated for 20 h with 150 ng/mL active LPS or detoxified LPS; negative controls with only one primary antibody
Conditions: remark: other sources report otherwise

B1: endothelial NO Synthase, P29474 1-1203 (enzyme)
chain: MGNLKSVAQEPGPPCGLGLGLGLGLCGKQGPATPAPEPSRAPASLLPPAPEHSPPSSPLTQPPEGPKFPRVKNWEVGSITYDTLSAQAQQDGPCTPRRCLGSLVFPRKLQGRPSPGPPAPEQLLSQARDFINQYYSSIKRSGSQAHEQRLQEVEAEVAATGTYQLRESELVFGAKQAWRNAPRCVGRIQWGKLQVFDARDCRSAQEMFTYICNHIKYATNRGNLRSAITVFPQRCPGRGDFRIWNSQLVRYAGYRQQDGSVRGDPANVEITELCIQHGWTPGNGRFDVLPLLLQAPDDPPELFLLPPELVLEVPLEHPTLEWFAALGLRWYALPAVSNMLLEIGGLEFPAAPFSGWYMSTEIGTRNLCDPHRYNILEDVAVCMDLDTRTTSSLWKDKAAVEINVAVLHSYQLAKVTIVDHHAATASFMKHLENEQKARGGCPADWAWIVPPISGSLTPVFHQEMVNYFLSPAFRYQPDPWKGSAAKGTGITRKKTFKEVANAVKISASLMGTVMAKRVKATILYGSETGRAQSYAQQLGRLFRKAFDPRVLCMDEYDVVSLEHETLVLVVTSTFGNGDPPENGESFAAALMEMSGPYNSSPRPEQHKSYKIRFNSISCSDPLVSSWRRKRKESSNTDSAGALGTLRFCVFGLGSRAYPHFCAFARAVDTRLEELGGERLLQLGQGDELCGQEEAFRGWAQAAFQAACETFCVGEDAKAAARDIFSPKRSWKRQRYRLSAQAEGLQLLPGLIHVHRRKMFQATIRSVENLQSSKSTRATILVRLDTGGQEGLQYQPGDHIGVCPPNRPGLVEALLSRVEDPPAPTEPVAVEQLEKGSPGGPPPGWVRDPRLPPCTLRQALTFFLDITSPPSPQLLRLLSTLAEEPREQQELEALSQDPRRYEEWKWFRCPTLLEVLEQFPSVALPAPLLLTQLPLLQPRYYSVSSAPSTHPGEIHLTVAVLAYRTQDGLGPLHYGVCSTWLSQLKPGDPVPCFIRGAPSFRLPPDPSLPCILVGPGTGIAPFRGFWQERLHDIESKGLQPTPMTLVFGCRCSQLDHLYRDEVQNAQQRGVFGRVLTAFSREPDNPKTYVQDILRTELAAEVHRVLCLERGHMFVCGDVTMATNVLQTVQRILATEGDMELDEAGDVIGVLRDQQRYHEDIFGLTLRTQEVTSRIRTQSFSLQERQLRGAVPWAFDPPGSDTNSP
With B1 the binding was “binds”.
